{"source": "PubChem BioAssay AID1259405 (NCATS, 2018)", "aim": "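Silenced genes that increase secreted GFP made by CHO cells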 (primary screen)", "cell system": "Chinese hamster CHO-K1 ovary cells with stable secreted eGFP expression", "reagent": "single siRNA against mouse genes, 0.8 pmol siRNA per well (2 µl of 400 nM stock)", "timing": "3 days", "measurement": "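Percent of the per-plate non-targeting control median for intracellular GFP per well by laser scanning cytometry and for cell viability by ATP luminescence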", "scale": "GFP, % of control: higher = more GFP per well, higher productivity; viability (ATP), % of control: higher = more viable cells (more ATP)", "call rule": "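a knock-down is called active if GFP reaches 120% or more of non-targeting control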", "note": "Here is one part, drawn at random, of about 50,000 reagents. Of all reagents, about 4,000 (8%) got an active call. 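Mouse siRNA library applied to hamster cells; one well for each siRNA.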 A number with no mark means an inactive call. Reagent sequences are not shown."}
{"target gene": "Tfap2b (GeneID 21419)", "PubChem SID": "SID363573663", "GFP, % of control": 82.7, "viability (ATP), % of control": 76.7}
{"target gene": "Tfap2b (GeneID 21419)", "PubChem SID": "SID363581407", "GFP, % of control": 72.9, "viability (ATP), % of control": 66}
{"target gene": "Tfap2b (GeneID 21419)", "PubChem SID": "SID363583871", "GFP, % of control": 82.8, "viability (ATP), % of control": 112}
{"target gene": "Atp5mf (GeneID 57423)", "PubChem SID": "SID363546715", "GFP, % of control": 78.8, "viability (ATP), % of control": 54}
{"target gene": "Atp5mf (GeneID 57423)", "PubChem SID": "SID363548471", "GFP, % of control": 56.9, "viability (ATP), % of control": 73.3}
{"target gene": "Atp5mf (GeneID 57423)", "PubChem SID": "SID363560649", "GFP, % of control": 48.2, "viability (ATP), % of control": 71.6}
{"target gene": "Letmd1 (GeneID 68614)", "PubChem SID": "SID363544259", "GFP, % of control": 70.8, "viability (ATP), % of control": 62}
{"target gene": "Letmd1 (GeneID 68614)", "PubChem SID": "SID363550587", "GFP, % of control": 77.7, "viability (ATP), % of control": 82.3}
{"target gene": "Letmd1 (GeneID 68614)", "PubChem SID": "SID363557136", "GFP, % of control": 78.6, "viability (ATP), % of control": 82}
{"target gene": "Bpifb6 (GeneID 228796)", "PubChem SID": "SID363582598", "GFP, % of control": 90.3, "viability (ATP), % of control": 97.4}
{"target gene": "Bpifb6 (GeneID 228796)", "PubChem SID": "SID363584358", "GFP, % of control": 72.6, "viability (ATP), % of control": 89.6}
{"target gene": "Or8s2 (GeneID 259038)", "PubChem SID": "SID363544500", "GFP, % of control": 96.6, "viability (ATP), % of control": 81.3}
{"target gene": "Or8s2 (GeneID 259038)", "PubChem SID": "SID363550828", "GFP, % of control": 83.1, "viability (ATP), % of control": 85.4}
{"target gene": "Or8s2 (GeneID 259038)", "PubChem SID": "SID363557377", "GFP, % of control": 98.3, "viability (ATP), % of control": 71.8}
{"target gene": "Rpl26 (GeneID 19941)", "PubChem SID": "SID363553975", "GFP, % of control": 47.4, "viability (ATP), % of control": 66.5}
{"target gene": "Rpl26 (GeneID 19941)", "PubChem SID": "SID363561932", "GFP, % of control": 24.1, "viability (ATP), % of control": 29.5}
{"target gene": "Rpl26 (GeneID 19941)", "PubChem SID": "SID363565670", "GFP, % of control": 32.2, "viability (ATP), % of control": 37.1}
{"target gene": "U2af2 (GeneID 22185)", "PubChem SID": "SID363545944", "GFP, % of control": 117, "viability (ATP), % of control": 131}
{"target gene": "U2af2 (GeneID 22185)", "PubChem SID": "SID363549457", "GFP, % of control": 65.7, "viability (ATP), % of control": 46.3}
{"target gene": "U2af2 (GeneID 22185)", "PubChem SID": "SID363563263", "GFP, % of control": 68, "viability (ATP), % of control": 80.7}

Ordered by “viability (ATP), % of control” (ascending): 2 of the entries above
{"target gene": "Or8s2 (GeneID 259038)", "PubChem SID": "SID363557377", "GFP, % of control": 98.3, "viability (ATP), % of control": 71.8}
{"target gene": "Or8s2 (GeneID 259038)", "PubChem SID": "SID363550828", "GFP, % of control": 83.1, "viability (ATP), % of control": 85.4}

The listing continues.
{"target gene": "Zfp414 (GeneID 328801)", "PubChem SID": "SID363540842", "GFP, % of control": 58.1, "viability (ATP), % of control": 81.5}
{"target gene": "Zfp414 (GeneID 328801)", "PubChem SID": "SID363543293", "GFP, % of control": 116, "viability (ATP), % of control": 88.3}
{"target gene": "Zfp414 (GeneID 328801)", "PubChem SID": "SID363552786", "GFP, % of control": "159 (active)", "viability (ATP), % of control": 84.9}
{"target gene": "Tmem164 (GeneID 209497)", "PubChem SID": "SID363546565", "GFP, % of control": 101, "viability (ATP), % of control": 39}
{"target gene": "Tmem164 (GeneID 209497)", "PubChem SID": "SID363548321", "GFP, % of control": 54.8, "viability (ATP), % of control": 77.2}
{"target gene": "Tmem164 (GeneID 209497)", "PubChem SID": "SID363560499", "GFP, % of control": 76.5, "viability (ATP), % of control": 87.8}
{"target gene": "Bad (GeneID 12015)", "PubChem SID": "SID363569067", "GFP, % of control": 65.1, "viability (ATP), % of control": 81.6}
{"target gene": "Bad (GeneID 12015)", "PubChem SID": "SID363583499", "GFP, % of control": 92.4, "viability (ATP), % of control": 97.4}
{"target gene": "Adam9 (GeneID 11502)", "PubChem SID": "SID363547226", "GFP, % of control": 102, "viability (ATP), % of control": 103}
{"target gene": "Adam9 (GeneID 11502)", "PubChem SID": "SID363557995", "GFP, % of control": 56.9, "viability (ATP), % of control": 75.5}
{"target gene": "Adam9 (GeneID 11502)", "PubChem SID": "SID363559753", "GFP, % of control": 78.2, "viability (ATP), % of control": 84.3}
{"target gene": "Ripply3 (GeneID 170765)", "PubChem SID": "SID363539645", "GFP, % of control": 52.3, "viability (ATP), % of control": 61.9}
{"target gene": "Ripply3 (GeneID 170765)", "PubChem SID": "SID363560946", "GFP, % of control": 74.8, "viability (ATP), % of control": 80.5}
{"target gene": "Ripply3 (GeneID 170765)", "PubChem SID": "SID363565036", "GFP, % of control": 57.4, "viability (ATP), % of control": 83.5}
{"target gene": "Washc5 (GeneID 223593)", "PubChem SID": "SID363539581", "GFP, % of control": 90.5, "viability (ATP), % of control": 102}
{"target gene": "Washc5 (GeneID 223593)", "PubChem SID": "SID363560882", "GFP, % of control": 112, "viability (ATP), % of control": 77.2}
{"target gene": "Washc5 (GeneID 223593)", "PubChem SID": "SID363564972", "GFP, % of control": 69.8, "viability (ATP), % of control": 71.6}
{"target gene": "Abl2 (GeneID 11352)", "PubChem SID": "SID363547309", "GFP, % of control": 106, "viability (ATP), % of control": 79.2}
{"target gene": "Abl2 (GeneID 11352)", "PubChem SID": "SID363558078", "GFP, % of control": 109, "viability (ATP), % of control": 78.6}
{"target gene": "Abl2 (GeneID 11352)", "PubChem SID": "SID363559836", "GFP, % of control": 69.9, "viability (ATP), % of control": 70.3}
